Assay results reported in patent publication US11420998B2, “Aromatic-cationic peptides and methods for using same” (Stealth Biotherapeutics Inc., priority 2011, dated 2022).
Part of at least one peptide drawing is inferred or uncertain, most often the ends. Square brackets hold non-standard residues; d marks the D form. Peptide text beside a SMILES is read from it. Dmt = Cc1cc(O)cc(C)c1C[C@H](N)C(=O)O

Assays:
[1] = tested on: porcine model of atherosclerotic renal artery stenosis; assay: Renal inflammation and oxidative stress; assay type: in vivo, pig; conditions: four weeks after PTRA
porcine ARAS = assay: Example 3: chronic subcutaneous peptide in porcine ARAS without vascular intervention (planned); conditions: untreated ARAS pigs, chronic SC 0.1 mg/kg
[2] = tested on: experimental rodent models; conditions: recent studies in experimental rodent models; cited from earlier work
human subjects with ARVD = assay: Example 5: chronic treatment of human subjects with ARVD (planned); assay type: in vivo; conditions: chronic treatment 0.1 mg/kg subcutaneously, compared to untreated control subjects
[3] = tested on: porcine model of atherosclerotic renal artery stenosis; assay: Porcine ARAS + PTRA: systemic characteristics, renal hemodynamics and function (MDCT) four weeks after PTRA; assay type: in vivo, pig
[4] = tested on: isolated renal artery rings; assay: Vascular reactivity of isolated renal artery rings; parameters: species or system pig; conditions: increasing doses of peptide (10^−9 M to 10^−4), without or after precontraction with endothelin-1
human subjects with ARAS = assay: Example 2: peptide infusion with PTRA in human ARAS (planned); assay type: in vivo; conditions: infusion in conjunction with PTRA, compared to control subjects
[5] = tested on: porcine model of atherosclerotic renal artery stenosis; assay: Inflammatory and injury markers during PTRA (IVC and urine samples); assay type: in vivo, pig
[6] = tested on: porcine model of atherosclerotic renal artery stenosis; assay: Microvascular architecture (micro-CT) and angiogenesis; assay type: in vivo, pig; conditions: four weeks after PTRA
[7] = tested on: porcine model of atherosclerotic renal artery stenosis; assay: Apoptosis and mitochondrial biogenesis in renal tissue (TUNEL, caspase-3, Western blot); assay type: in vivo, pig
[8] = tested on: porcine model of atherosclerotic renal artery stenosis; assay: Renal morphology and fibrosis (trichrome, PAS, immunostaining, Western blot); assay type: in vivo, pig; conditions: four weeks after PTRA
[9] = tested on: rat models of acute ischemia reperfusion injury and unilateral ureteral obstruction; conditions: cited from earlier work
swine ARVD = assay: Chronic treatment in swine ARVD: renal stenosis, hemodynamics, function, fibrosis, oxygenation; assay type: in vivo, pig; conditions: for Cortical Perfusion / Degree of stenosis / GFR / Mean blood pressure / RBF / Tubulointerstitial fibrosis / renal volume: 0.1 mg/kg subcutaneous 5 days/week, four weeks
[10] = ARAS + PTRA + peptide, four weeks after PTRA, n = 7, mean ± SD
[11] = peptide-treated ARAS+PTRA subjects, four weeks after revascularization
[12] = after revascularization (30 and 180 min post-PTRA)
[13] = ARAS+PTRA+peptide, four weeks after PTRA
[14] = all ARAS groups, four weeks after PTRA
[15] = renal tissue, four weeks after PTRA
[16] = rat models of acute ischemia reperfusion injury and unilateral ureteral obstruction

Cc1cc(O)cc(C)c1C[C@H](NC(=O)[C@H](N)CCCNC(=N)N)C(=O)N[C@@H](CCCCN)C(=O)N[C@@H](Cc1ccccc1)C(N)=O [D-Arg-2′,6′-Dmt-Lys-Phe-NH2] (H-[dR][Dmt]KF-NH2)
in-situ production of superoxide anion in the post-stenotic kidney ([1]; DHE staining): decreased to levels not different from normal | number of CD163+ macrophages infiltrating the kidney [1]: ameliorated | renal expression of TNF-α [1]: normalized | renal expression of nitrotyrosine [1]: decreased to levels not different from normal | renal expression of p47 [1]: decreased to levels not different from normal | MCP-1 immunoreactivity ([1]; renal tissue): ameliorated | microvascular density (porcine ARAS; micro-CT): increase | CD163 levels (porcine ARAS): decrease | MCP-1 levels (porcine ARAS): decrease | NAD(P)H oxidase expression (porcine ARAS): reduction | NO availability (eNOS expression, nitrate/nitrite levels) (porcine ARAS): increased | TNF-α levels (porcine ARAS): decrease | degree of fibrosis trichrome staining (porcine ARAS): decrease | expression of fibrogenic factor PAI-1 (porcine ARAS): decrease | expression of fibrogenic factor TGF-β (porcine ARAS): decrease | in situ production of superoxide (porcine ARAS): reduction | levels of Bax (porcine ARAS): reduction | levels of Bcl-xL (porcine ARAS): increase | number of TUNEL+ cells (porcine ARAS): decrease | renal hemodynamic and oxygenation (porcine ARAS): increase | hypertensive cardiomyopathy [2]: attenuating | infarct size [2]: reducing | Cortical Perfusion (human subjects with ARVD): improved | GFR (human subjects with ARVD): improved | RBF (human subjects with ARVD): improved | Tubulointerstitial fibrosis (human subjects with ARVD): reduced | cortical blood oxygenation (human subjects with ARVD): improved | mean arterial blood pressure (human subjects with ARVD): reduced | renal volume (human subjects with ARVD): improved | vascular reactivity (human subjects with ARVD): improved | Degree of stenosis ([3]; ARAS + PTRA + peptide, four weeks after PTRA, n = 7): 0% | Mean arterial pressure [3, 10]: 106.8 ± 2.9 mmHg | Serum creatinine [3, 10]: 1.98 ± 0.36 mg/dL | Urinary albumin [3, 10]: 3.8 ± 3.3 µg/mL | cortical and medullary volumes ([3]; four weeks after revascularization, all ARAS groups compared to normal): similarly lower | GFR [3, 11]: restored to normal levels | RBF [3, 11]: restored to normal levels | cortical and medullary perfusion [3, 11]: restored to normal levels | 8-epi-isoprostane ([3]; systemic level, ARAS + PTRA + peptide, four weeks after PTRA, n = 7, mean ± SD): 118.2 ± 13.9 pg/mL | change in diameter of isolated renal artery rings (vasoconstriction / vasodilation) [4]: no change in diameter | average vessel diameter (human subjects with ARAS): improved | glomerular filtration rate (human subjects with ARAS): improved | renal blood flow (human subjects with ARAS): improved | renal microvasculature density (human subjects with ARAS): improved | renal oxygenation (human subjects with ARAS): improved | renal volume (human subjects with ARAS): improved | vessel tortuosity (human subjects with ARAS): improved | urinary 8-epi-isoprostane levels ([5]; 210 min after PTRA): remained unchanged | urinary protein levels ([5]; 210 min after PTRA): remained unchanged | Systemic levels of creatinine [5, 12]: remained unchanged | Systemic levels of granulocyte colony-stimulating factor (G-CSF) [5, 12]: remained unchanged | Systemic levels of interleukin (IL)-1β [5, 12]: remained unchanged | Systemic levels of transforming growth factor (TGF)-β [5, 12]: remained unchanged | Systemic levels of tumor necrosis factor (TNF)-α [5, 12]: remained unchanged | Systemic plasma levels of monocyte chemoattractant protein (MCP-1) ([5]; after revascularization vs. baseline, ARAS+PTRA+peptide, similar to vehicle): similarly increased | Renal expression of VEGF ([6]; PTRA+peptide): above (VEGF) normal | Renal expression of VEGFR-1 ([6]; PTRA+peptide): restored them to levels similar to | Renal expression of VEGFR-2 ([6]; PTRA+peptide): restored them to levels similar to | Spatial density of renal cortical microvessels ([6]; peptide during PTRA): did not differ from normal levels | average vessel diameter ([6]; peptide during PTRA): improved | vessel tortuosity ([6]; peptide during PTRA): improved | number of apoptotic cells positive for TUNEL [7, 13]: decreased | number of apoptotic cells positive for caspase-3 [7, 13]: decreased | Renal expression of Heme oxygenase (HO)-1 [7, 14]: remained similarly blunted | Renal expression of PPAR-6 [7, 14]: remained similarly blunted | Renal expression of B-cell lymphoma (Bcl)-2 ([7]; four weeks after PTRA): did not differ among the groups | expression of the pro-apoptotic protein Bax ([7]; peptide during PTRA, four weeks after PTRA): significantly reduced | expression of GA-binding protein (GABP) [7, 15]: up-regulated | expression of PGC-1α [7, 15]: up-regulated | expression of nuclear respiratory factor (NRF)-1 [7, 15]: up-regulated | expression of peroxisome proliferator-activated receptor (PPAR)-α [7, 15]: up-regulated | expression of sirtuin (SIRT)-1 ([7]; revascularization with or without adjunct peptide): restored | glomerular score ([8]; ARAS+PTRA+peptide): significantly reduced | Tubular injury score ([8]; PAS staining, ARAS+PTRA+peptide): significantly diminished, although not abolished | Renal expression of plasminogen activator inhibitor (PAI)-1 ([8]; both PTRA groups): similarly attenuated | Immunostaining of collagen IV [8]: reduced | Immunostaining of fibronectin [8]: reduced | TGF-β1 expression [8]: restored to normal levels | Tubulo-interstitial fibrosis ([8]; trichrome, ARAS+PTRA+peptide): significantly reduced | interstitial fibrosis [9, 16]: prevented | tubular cell regeneration [9, 16]: accelerated | acute ischemia-induced tubular damage ([9]; rats, preserving tubular brush borders, minimizing tubular cell detachment): attenuated | Cortical Perfusion (swine ARVD; ARVD + Bendavia): 4.4 ± 0.2 ml/min/cc | Degree of stenosis (swine ARVD; ARVD + Bendavia): 81.0 ± 5.3 % | GFR (swine ARVD; ARVD + Bendavia): 86.6 ± 11.2 mL/min | Mean blood pressure (swine ARVD; ARVD + Bendavia): 171.5 ± 15.8 mmHg | RBF (swine ARVD; ARVD + Bendavia): 535.1 ± 24.9 mL/min | Tubulointerstitial fibrosis (swine ARVD; ARVD + Bendavia): 2.8 ± 1.0% | renal volume (swine ARVD; ARVD + Bendavia): 104.9 ± 3.3 cc | cortical blood oxygenation (swine ARVD; BOLD MRI (R2*), ARAS subjects compared to untreated controls): improved | Cortical Perfusion (swine ARVD; NORMAL + Bendavia): 4.0 ± 0.3 ml/min/cc | Degree of stenosis (swine ARVD; NORMAL + Bendavia): 0% | GFR (swine ARVD; NORMAL + Bendavia): 75.8 ± 6.8 mL/min | Mean blood pressure (swine ARVD; NORMAL + Bendavia): 84.4 ± 23.7 mmHg | RBF (swine ARVD; NORMAL + Bendavia): 589.7 ± 71.8 mL/min | Tubulointerstitial fibrosis (swine ARVD; NORMAL + Bendavia): 2.4 ± 0.4% | renal volume (swine ARVD; NORMAL + Bendavia): 96.1 ± 6.3 cc | vascular reactivity to Ach (swine ARVD; change in RBF and GFR during Ach infusion, ARAS subjects compared to untreated controls): improved
